Weaker means in comparison with the reference protein, sequence or condition of that experiment. For at least one entry, the source does not settle the construct or the ends of the probe. At least one verdict rests on a figure or table, not on a statement of the authors.
Columns and labels:
[1] = molecular target: Hfq102 (wild-type Hfq) (Escherichia coli) (UniProt P0A6X3); assay: competition with a labelled probe; conditions: CTD-FITC competition: 50 mM Tris-HCl pH 7.5, 30 C, pUC19 EMSA: 40 mM Tris-HCl pH 7.5, 0.14 mM EDTA, 35 mM NH4Cl, 3.7% glycerol, 25 C (competition legend 30 C), recombinant protein, residues 1-102, protein details: untagged
[2] = molecular target: Hfq65 (Hfq core, CTD deleted) (Escherichia coli) (UniProt P0A6X3); assay: competition with a labelled probe; conditions: CTD-FITC competition: 50 mM Tris-HCl pH 7.5, 30 C, pUC19 EMSA: 40 mM Tris-HCl pH 7.5, 0.14 mM EDTA, 35 mM NH4Cl, 3.7% glycerol, 25 C (competition legend 30 C), recombinant protein, residues 1-65, protein details: untagged
[3] = 400 nM DNA2 displaces remaining D16-FAM RNA, single-stranded DNA
[4] = displaces CTD-FITC peptide, short oligomers poorer than sRNAs

Q: Does “TTTTTCAAACTGCGGATGAGACCACATATGTATATCTCCTTCTTAAAGTTAAAC [DNA2]” bind [1, 3]?
A: Result: binds

Q: Does “TTTTTCAAACTGCGGATGAGACCACATATGTATATCTCCTTCTTAAAGTTAAAC [DNA2]” bind [2, 3]?
A: Result: binds

Q: Does “TTTTTCAAACTGCGGATGAGACCACATATGTATATCTCCTTCTTAAAGTTAAAC [DNA2]” bind ([2]; displaces CTD-FITC peptide, DNA oligomers poorer than sRNAs, single-stranded DNA)?
A: Result: binds more weakly

Q: Does “TATCCGTATGACGTTCCGGACTATGCGGCTAAGGGGCAATCTTTAC [DNA1]” bind ([1]; vs pUC19 EMSA, weak, folded or branched DNA)?
A: Result: binds more weakly

Q: Does AAAAAAAAAAAAAAAAAA [A18] bind [2, 4]?
A: Result: binds more weakly

Q: Does “TTTTTCAAACTGCGGATGAGACCACATATGTATATCTCCTTCTTAAAGTTAAAC (double strand) [dsDNA2]” bind ([2]; displaces CTD-FITC peptide, weaker than length trend, letters put together from the description)?
A: Result: binds more weakly

Q: Does GUGGUCAGUCGAGUGGUUUUUU [Target-U6] bind [2, 4]?
A: Result: binds more weakly

Q: Does “GUGGUCAGUCGAGUGGAAAAAAAAAAAAAAAAAA [Target-A18]” bind [2, 4]?
A: Result: binds more weakly

Q: Does CUUCCGUCCAUUUCGGACG [minRCRB] bind ([1]; vs pUC19 EMSA, weak, 5' Thiol-C6)?
A: Result: binds more weakly

Q: Does GUGGUCAGUCGAGUGG [Target] bind ([1]; vs pUC19 EMSA, poor)?
A: Result: binds more weakly

Q: Does GUGGUCAGUCGAGUGG [Target] bind [2, 4]?
A: Result: binds more weakly
